From article PMC4476799, “Englerin A Agonizes the TRPC4/C5 Cation Channels to Inhibit Tumor Cell Line Proliferation” (PLoS ONE, 2015)
The source gives many values for each of these; only a part stands here.

Tested on: cancer cell lines from the cancer cell line encyclopedia (CCLE)
Assay: Cell line profiling (CLiP) proliferation experiment
Type: cell-based
Design: ACTIVITY_AREA: scale not given here; AMAX: unit not given here
Method: Compound profiling experiment and data analysis was performed as previously described. Data was imported and plotted using the Tibco Spotfire DXP application. Lines were categorized as sensitive, intermediate and refractory as follows: Amax<-40 & Inflection Point <2 ~ Sensitive, Amax>-20 & Inflection Point >10 ~ Refractory, all else were called Intermediate. Cancer Cell line HG-U133 Plus 2 data was processed and normalized as described. […] Five sets of refractory cell lines were generated from the pool of refractory cell lines trying to match the lineage composition of the set of sensitive cell lines. The limma package was used as previously described to perform the statistical comparison.

[1] = cell line MV-4-11 (haematopoietic_and_lymphoid_tissue)
[2] = cell line NALM-6 (haematopoietic_and_lymphoid_tissue)
[3] = cell line NB-1 (autonomic_ganglia)
[4] = cell line NB-4 (haematopoietic_and_lymphoid_tissue)
[5] = cell line NCI-H1048 (lung, small_cell_carcinoma)
[6] = cell line NCI-H1299 (lung, non_small_cell_carcinoma)
[7] = cell line NCI-H1355 (lung, adenocarcinoma)

In the case of CC(C)[C@@]12C[C@@H](O)[C@@](C)(O1)[C@@H]1CC[C@@H](C)[C@H]1[C@@H]2OC(=O)/C=C/c1ccccc1 [Englerin B], the RESPONSE (cell line MOR/CPR) is reported as “INTERMEDIATE”, the ACTIVITY_AREA (cell line MOR/CPR (lung)) is reported as 20.21 and the AMAX (cell line MOR/CPR (lung)) is reported as -50.6. The RESPONSE (cell line MOR/CPR (lung)) was “INTERMEDIATE”, the ACTIVITY_AREA (cell line MSTO-211H) was 22.35 and the AMAX (cell line MSTO-211H) was -56.17. For the same molecule, the RESPONSE (cell line MSTO-211H) was “INTERMEDIATE”, the ACTIVITY_AREA (cell line MSTO-211H (pleura)) was 22.35 and the AMAX (cell line MSTO-211H (pleura)) was -56.17. The RESPONSE (cell line MSTO-211H (pleura)) was “INTERMEDIATE”, the ACTIVITY_AREA [1] was 65.43 and the AMAX [1] was -93.67. For the same molecule, the RESPONSE [1] was “INTERMEDIATE”, the ACTIVITY_AREA (cell line MeWo (skin)) was 40.65 and the AMAX (cell line MeWo (skin)) was -53.35. For the same molecule, the RESPONSE (cell line MeWo (skin)) was “INTERMEDIATE”, the ACTIVITY_AREA (cell line MeWo (skin, NS)) was 40.65 and the AMAX (cell line MeWo (skin, NS)) was -53.35. The RESPONSE (cell line MeWo (skin, NS)) was “INTERMEDIATE”, the ACTIVITY_AREA (cell line Mel202) was 35.67 and the AMAX (cell line Mel202) was -41.41. For the same molecule, the RESPONSE (cell line Mel202) was “INTERMEDIATE”, the ACTIVITY_AREA (cell line Mel202 (eye)) was 35.67 and the AMAX (cell line Mel202 (eye)) was -41.41. The RESPONSE (cell line Mel202 (eye)) was “INTERMEDIATE”, the ACTIVITY_AREA (cell line Mel285) was 14.87 and the AMAX (cell line Mel285) was -41.93. The RESPONSE (cell line Mel285) was “INTERMEDIATE”, the ACTIVITY_AREA (cell line Mel285 (eye)) was 14.87 and the AMAX (cell line Mel285 (eye)) was -41.93. The RESPONSE (cell line Mel285 (eye)) was “INTERMEDIATE”, the ACTIVITY_AREA (cell line NALM-6) was 58.63 and the AMAX (cell line NALM-6) was -98.04. The RESPONSE (cell line NALM-6) was “INTERMEDIATE”, the ACTIVITY_AREA [2] was 58.63 and the AMAX [2] was -98.04. The RESPONSE [2] was “INTERMEDIATE”, the ACTIVITY_AREA (cell line NB-1) was 67.54 and the AMAX (cell line NB-1) was -62.65. For the same molecule, the RESPONSE (cell line NB-1) was “INTERMEDIATE”, the ACTIVITY_AREA [3] was 67.54 and the AMAX [3] was -62.65. The RESPONSE [3] was “INTERMEDIATE”, the ACTIVITY_AREA (cell line NB-4) was 42.88 and the AMAX (cell line NB-4) was -56.01. The RESPONSE (cell line NB-4) was “INTERMEDIATE”, the ACTIVITY_AREA [4] was 42.88 and the AMAX [4] was -56.01. For the same molecule, the RESPONSE [4] was “INTERMEDIATE”, the ACTIVITY_AREA (cell line NCI-H28) was 68.28 and the AMAX (cell line NCI-H28) was -73.22. The RESPONSE (cell line NCI-H28) was “INTERMEDIATE”, the ACTIVITY_AREA (cell line NCI-H146 (lung)) was 25.77 and the AMAX (cell line NCI-H146 (lung)) was -5.12. For the same molecule, the ACTIVITY_AREA (cell line NCI-H196) was 25.48, the AMAX (cell line NCI-H196) was -3.26 and the RESPONSE (cell line NCI-H196) was “REFRACTORY”. For the same molecule, the ACTIVITY_AREA (cell line NCI-H226) was 84.84, the AMAX (cell line NCI-H226) was -41.44 and the RESPONSE (cell line NCI-H226) was “INTERMEDIATE”. For the same molecule, the ACTIVITY_AREA (cell line NCI-H358) was 28.35, the AMAX (cell line NCI-H358) was -65.38 and the RESPONSE (cell line NCI-H358) was “INTERMEDIATE”. The ACTIVITY_AREA (cell line NCI-H441) was 12.16, the AMAX (cell line NCI-H441) was -29.95 and the RESPONSE (cell line NCI-H441) was “INTERMEDIATE”. The ACTIVITY_AREA (cell line NCI-H460) was 22.87, the AMAX (cell line NCI-H460) was -32.1 and the RESPONSE (cell line NCI-H460) was “INTERMEDIATE”. The ACTIVITY_AREA (cell line NCI-H647) was 65.46, the AMAX (cell line NCI-H647) was -63.95 and the RESPONSE (cell line NCI-H647) was “INTERMEDIATE”. The ACTIVITY_AREA (cell line NCI-H727) was 5.2, the AMAX (cell line NCI-H727) was 5.53 and the RESPONSE (cell line NCI-H727) was “REFRACTORY”. The ACTIVITY_AREA (cell line NCI-H810) was 14.12, the AMAX (cell line NCI-H810) was -56.53 and the RESPONSE (cell line NCI-H810) was “INTERMEDIATE”. For the same molecule, the ACTIVITY_AREA (cell line NCI-H841) was 38.09, the AMAX (cell line NCI-H841) was -87.59 and the RESPONSE (cell line NCI-H841) was “INTERMEDIATE”. For the same molecule, the ACTIVITY_AREA (cell line NCI-H1048 (lung)) was 157.35, the AMAX (cell line NCI-H1048 (lung)) was -63.14 and the RESPONSE (cell line NCI-H1048 (lung)) was “INTERMEDIATE”. For the same molecule, the ACTIVITY_AREA [5] was 157.35, the AMAX [5] was -63.14 and the RESPONSE [5] was “INTERMEDIATE”. For the same molecule, the ACTIVITY_AREA (cell line NCI-H1092) was 36.09, the AMAX (cell line NCI-H1092) was -35.83 and the RESPONSE (cell line NCI-H1092) was “INTERMEDIATE”. For the same molecule, the ACTIVITY_AREA (cell line NCI-H1092 (lung)) was 36.09, the AMAX (cell line NCI-H1092 (lung)) was -35.83 and the RESPONSE (cell line NCI-H1092 (lung)) was “INTERMEDIATE”. For the same molecule, the ACTIVITY_AREA (cell line NCI-H1299 (lung)) was 36.91, the AMAX (cell line NCI-H1299 (lung)) was -77.46 and the RESPONSE (cell line NCI-H1299 (lung)) was “INTERMEDIATE”. The ACTIVITY_AREA [6] was 36.91, the AMAX [6] was -77.46 and the RESPONSE [6] was “INTERMEDIATE”. The ACTIVITY_AREA (cell line NCI-H1341) was 41.08, the AMAX (cell line NCI-H1341) was -82.94 and the RESPONSE (cell line NCI-H1341) was “INTERMEDIATE”. For the same molecule, the ACTIVITY_AREA (cell line NCI-H1341 (lung)) was 41.08, the AMAX (cell line NCI-H1341 (lung)) was -82.94 and the RESPONSE (cell line NCI-H1341 (lung)) was “INTERMEDIATE”. The ACTIVITY_AREA (cell line NCI-H1355 (lung)) was 88.25, the AMAX (cell line NCI-H1355 (lung)) was -92.69 and the RESPONSE (cell line NCI-H1355 (lung)) was “INTERMEDIATE”. The ACTIVITY_AREA [7] was 88.25, the AMAX [7] was -92.69 and the RESPONSE [7] was “INTERMEDIATE”. The ACTIVITY_AREA (cell line NCI-H1437 (lung)) was 17.29, the AMAX (cell line NCI-H1437 (lung)) was -45.72 and the RESPONSE (cell line NCI-H1437 (lung)) was “INTERMEDIATE”. For the same molecule, the ACTIVITY_AREA (cell line NCI-H1563) was 37.41, the AMAX (cell line NCI-H1563) was -36.91 and the RESPONSE (cell line NCI-H1563) was “INTERMEDIATE”. For the same molecule, the ACTIVITY_AREA (cell line NCI-H1563 (lung)) was 37.41, the AMAX (cell line NCI-H1563 (lung)) was -36.91 and the RESPONSE (cell line NCI-H1563 (lung)) was “INTERMEDIATE”. The ACTIVITY_AREA (cell line NCI-H1568) was 105.3, the AMAX (cell line NCI-H1568) was -84.01 and the RESPONSE (cell line NCI-H1568) was “INTERMEDIATE”. For the same molecule, the ACTIVITY_AREA (cell line NCI-H1568 (lung)) was 105.3, the AMAX (cell line NCI-H1568 (lung)) was -84.01 and the RESPONSE (cell line NCI-H1568 (lung)) was “INTERMEDIATE”. For the same molecule, the ACTIVITY_AREA (cell line NCI-H1573 (lung)) was 188.17, the AMAX (cell line NCI-H1573 (lung)) was -69.31 and the RESPONSE (cell line NCI-H1573 (lung)) was “INTERMEDIATE”. The ACTIVITY_AREA (cell line NCI-H1581 (lung)) was 35.15, the AMAX (cell line NCI-H1581 (lung)) was -92.8 and the RESPONSE (cell line NCI-H1581 (lung)) was “INTERMEDIATE”. For the same molecule, the ACTIVITY_AREA (cell line NCI-H1623) was 10.28, the AMAX (cell line NCI-H1623) was -43.65 and the RESPONSE (cell line NCI-H1623) was “INTERMEDIATE”. For the same molecule, the ACTIVITY_AREA (cell line NCI-H1623 (lung)) was 10.28, the AMAX (cell line NCI-H1623 (lung)) was -43.65 and the RESPONSE (cell line NCI-H1623 (lung)) was “INTERMEDIATE”. The ACTIVITY_AREA (cell line NCI-H1650 (lung)) was 37.78, the AMAX (cell line NCI-H1650 (lung)) was -54.12 and the RESPONSE (cell line NCI-H1650 (lung)) was “INTERMEDIATE”. The ACTIVITY_AREA (cell line NCI-H1651 (lung)) was 18.25, the AMAX (cell line NCI-H1651 (lung)) was -33.21 and the RESPONSE (cell line NCI-H1651 (lung)) was “INTERMEDIATE”. The ACTIVITY_AREA (cell line NCI-H1666) was 40.08, the AMAX (cell line NCI-H1666) was -59.97 and the RESPONSE (cell line NCI-H1666) was “INTERMEDIATE”. The ACTIVITY_AREA (cell line NCI-H1666 (lung)) was 40.08, the AMAX (cell line NCI-H1666 (lung)) was -59.97 and the RESPONSE (cell line NCI-H1666 (lung)) was “INTERMEDIATE”. The ACTIVITY_AREA (cell line NCI-H1693) was 22.07, the AMAX (cell line NCI-H1693) was -29.69 and the RESPONSE (cell line NCI-H1693) was “INTERMEDIATE”. For the same molecule, the ACTIVITY_AREA (cell line NCI-H1693 (lung)) was 22.07, the AMAX (cell line NCI-H1693 (lung)) was -29.69 and the RESPONSE (cell line NCI-H1693 (lung)) was “INTERMEDIATE”. The ACTIVITY_AREA (cell line NCI-H1703) was 55.52, the AMAX (cell line NCI-H1703) was -83.26 and the RESPONSE (cell line NCI-H1703) was “INTERMEDIATE”. For the same molecule, the ACTIVITY_AREA (cell line NCI-H1703 (lung)) was 55.52, the AMAX (cell line NCI-H1703 (lung)) was -83.26 and the RESPONSE (cell line NCI-H1703 (lung)) was “INTERMEDIATE”. For the same molecule, the ACTIVITY_AREA (cell line NCI-H1734) was 38.35, the AMAX (cell line NCI-H1734) was -74.81 and the RESPONSE (cell line NCI-H1734) was “INTERMEDIATE”. The ACTIVITY_AREA (cell line NCI-H1734 (lung)) was 38.35, the AMAX (cell line NCI-H1734 (lung)) was -74.81 and the RESPONSE (cell line NCI-H1734 (lung)) was “INTERMEDIATE”. The ACTIVITY_AREA (cell line NCI-H1781) was 117.95, the AMAX (cell line NCI-H1781) was -63.31 and the RESPONSE (cell line NCI-H1781) was “INTERMEDIATE”. It also gave an ACTIVITY_AREA (cell line NCI-H1781 (lung)) of 117.95.
